In PubChem BioAssay AID248 (DTP/NCI, 2004) one finds survivor count and T/C data, which are given here for 24 molecules.

The list is a part of this screen's results and no random one: it is rich in T/C values a quarter to a half above the control, in often repeated tests (any T/C) and in doses without a T/C. Other doses and runs of a compound stand elsewhere. T/C: endpoint of the treated group in % of that of the vehicle group. Some doses have a count of surviving animals in place of a T/C: the source files T/C as zero there, which appears to mark a toxic dose or a test without result, not a measured value. Some survivor counts are full or nearly so, which does not show that the dose was tolerated: survival well below the control is almost never listed, so the zero probably covers shortened survival too. Counts of survivors are from the toxicity check (mostly the fifth day) where no day follows; animals may have died later. Schedules are NCI's codes, taken here to give the interval after Q, in days (D) or hours (H), and the number of doses after X. Some schedules carry Z or #; the key to these is not given. Where survival is the endpoint, this PubChem deposit counts one and a half times the control or more as active, and values a quarter to a half above the control carry no call in these data; other NCI protocols may use other cut-offs. Some T/C values are followed by the survivors on the day toxicity was checked, most often the fifth; where none is given, no animal had died by that day.

The subject of this assay is L1210 leukemia ip in BDF1 mice, survival T/C. Kind of assay: NCI In Vivo Anticancer Drug Screen. Data for tumor model L1210 Leukemia (intraperitoneal) in B6D2F1 (BDF1) mice. The settings on record: T/C endpoint: mean survival time, higher T/C = longer survival.
The mark [1] stands for this setting: dose: 200.0 mg/kg/injection, schedule: Q04DX003 (ip), vehicle: Klucel (hydroxypropylcellulose) (HPC).
Where [2] appears, read: dose: 400.0 mg/kg/injection, schedule: Q04DX003 (ip), vehicle: Klucel (hydroxypropylcellulose) (HPC).
Where [3] appears, read: dose: 400.0 mg/kg/injection, schedule: Q01DX009 (ip), vehicle: saline with Tween-80.
The mark [4] stands for this setting: dose: 100.0 mg/kg/injection, schedule: Q04DX003 (ip), vehicle: saline.
The mark [5] stands for this setting: dose: 200.0 mg/kg/injection, schedule: Q04DX003 (ip), vehicle: saline.
Setting [6] is: dose: 400.0 mg/kg/injection, schedule: Q04DX003 (ip), vehicle: saline.
Where [7] appears, read: dose: 300.0 mg/kg/injection, schedule: Q01DX001 (ip), vehicle: saline.
The mark [8] stands for this setting: dose: 400.0 mg/kg/injection, schedule: Q04DX003 (ip), vehicle: saline with Tween-80.

Regarding `Nc1ncnc2nc(N=Nc3ccc(S(=O)(=O)N(CCCl)CCCl)cc3)[nH]c12`, the survivor count runs as follows: under setting [1], 6 of 6; under setting [2], 6 of 6.
Regarding `CC(C)C1=CC23CCC4C(C)(C(=O)O)CCCC4(C)C2CC1C1(Cl)C(Cl)=C(Cl)C(Cl)(Cl)C31Cl` (stereo not given), the survivor count (dose: 300.0 mg/kg/injection, schedule: Q01DX001 (ip), vehicle: other) is 3 of 6.
As for `CC(SC(C)c1ccccc1)c1ccccc1` (stereo not given), the survivor count under setting [3] is 6 of 6.
Take `CC(Oc1ccc(Cl)cc1)C(/C=N/N=C(N)N)=N/N=C(N)N` (stereo not given): the survivor count is, setting by setting: under setting [4], 0 of 6; under setting [5], 0 of 6; under setting [6], 0 of 6.
Regarding `CS(=O)(=O)O/C=C1/CCOC1=O`, the survivor count is, setting by setting: (dose: 50.0 mg/kg/injection, schedule: Q01DX009 (ip), vehicle: water) 3 of 6; (dose: 100.0 mg/kg/injection, schedule: Q01DX009 (ip), vehicle: water) 2 of 6; (dose: 200.0 mg/kg/injection, schedule: Q01DX009 (ip), vehicle: water) 0 of 6.
Regarding `CCN(CCO)c1ccc(N=O)cc1`, the survivor count runs as follows: (dose: 20.0 mg/kg/injection, schedule: Q01DX001 (ip), vehicle: saline) 2 of 4; (dose: 40.0 mg/kg/injection, schedule: Q01DX001 (ip), vehicle: saline) 2 of 4; (dose: 80.0 mg/kg/injection, schedule: Q01DX001 (ip), vehicle: saline) 0 of 4; (dose: 100.0 mg/kg/injection, schedule: Q01DX001 (ip), vehicle: saline) 2 of 4; (dose: 200.0 mg/kg/injection, schedule: Q01DX001 (ip), vehicle: saline) 0 of 4; (dose: 400.0 mg/kg/injection, schedule: Q01DX001 (ip), vehicle: saline) 0 of 4.
Consider `O=C(O)c1ccccc1C(=O)Nc1ccccc1F`, for which the survivor count (dose: 100.0 mg/kg/injection, schedule: Q01DX009 (ip), vehicle: Klucel (hydroxypropylcellulose) (HPC)) is recorded as 6 of 6.
Take `CCCCN(C)N=Nc1c(C(N)=O)n[nH]c1C`: the T/C is, setting by setting: (dose: 16.0 mg/kg/injection, schedule: Q03HX024 (ip), vehicle: Klucel (hydroxypropylcellulose) (HPC)) 131 % of control; (dose: 20.0 mg/kg/injection, schedule: Q01DX009 (ip), vehicle: Klucel (hydroxypropylcellulose) (HPC)) 134 % of control; (dose: 30.0 mg/kg/injection, schedule: Q01DX009 (ip), vehicle: Klucel (hydroxypropylcellulose) (HPC)) 142 % of control; (dose: 32.0 mg/kg/injection, schedule: Q01DX009 (ip), vehicle: Klucel (hydroxypropylcellulose) (HPC)) 134 % of control; (dose: 32.0 mg/kg/injection, schedule: Q03HX016 (ip), vehicle: Klucel (hydroxypropylcellulose) (HPC)) 148 % of control; (dose: 64.0 mg/kg/injection, schedule: Q01DX009 (ip), vehicle: Klucel (hydroxypropylcellulose) (HPC)) 128 % of control. In addition, the T/C is, setting by setting: (dose: 128.0 mg/kg/injection, schedule: Q04DX003 (ip), vehicle: Klucel (hydroxypropylcellulose) (HPC)) 144 % of control; (dose: 256.0 mg/kg/injection, schedule: Q04DX003 (ip), vehicle: Klucel (hydroxypropylcellulose) (HPC)) 144 % of control [8 of 10 alive]; (dose: 256.0 mg/kg/injection, schedule: Q08DX002 (ip), vehicle: Klucel (hydroxypropylcellulose) (HPC)) 144 % of control [8 of 10 alive]. In addition, the survivor count runs as follows: (dose: 256.0 mg/kg/injection, schedule: Q01DX001 (ip), vehicle: Klucel (hydroxypropylcellulose) (HPC)) 6 of 10; (dose: 266.0 mg/kg/injection, schedule: Q01DX001 (ip), vehicle: carboxymethylcellulose (CMC)) 1 of 6; (dose: 400.0 mg/kg/injection, schedule: Q01DX001 (ip), vehicle: carboxymethylcellulose (CMC)) 0 of 6; (dose: 600.0 mg/kg/injection, schedule: Q01DX001 (ip), vehicle: carboxymethylcellulose (CMC)) 0 of 6.
For `CC(C)c1ccc(N2C(=O)CSC2=S)cc1`, where the note is “dose: 400.0 mg/kg/injection, schedule: Q04DX002 (ip), vehicle: saline with Tween-80”, the survivor count was 3 of 3.
Consider `COc1ccc2c(c1O)[C@]13CCN(C)[C@H](C2)[C@@H]1CCC(=O)C3`, for which the survivor count under setting [7] is reported as 0 of 6.
Take `CCCCCCCCCCCCCCCCCC(=O)OCCOC(=O)CCCCCCCCCCCCCCCCC`: the survivor count (dose: 400.0 mg/kg/injection, schedule: Q04DX002 (ip), vehicle: other) is given as 3 of 3.
Consider `C[N+](C)(CCCCCCCCCC[N+](C)(C)Cc1ccccc1)Cc1ccccc1`, for which the survivor count is 3 of 6 (dose: 12.5 mg/kg/injection, schedule: Q04DX003 (ip), vehicle: saline); 1 of 6 (dose: 25.0 mg/kg/injection, schedule: Q04DX003 (ip), vehicle: saline); 0 of 6 (dose: 50.0 mg/kg/injection, schedule: Q04DX003 (ip), vehicle: saline); 0 of 6 under setting [4]; 0 of 6 under setting [5]; 0 of 6 under setting [6].
As to `C=C[CH2][Sn]([c]1ccccc1)([c]1ccccc1)[c]1ccccc1`, the survivor count (dose: 200.0 mg/kg/injection, schedule: Q04DX003 (ip), vehicle: saline with Tween-80) is reported as 3 of 3 and the survivor count under setting [8] is 0 of 3.
Regarding `CC(=O)OC(C)C1C2=C(C(=O)CC1(C)O)C(=O)c1c(ccc(-c3ccc4c(c3O)C(=O)C3=C(C4=O)C(C(C)OC(C)=O)C(C)(O)CC3=O)c1O)C2=O` (stereo not given), the survivor count (dose: 25.0 mg/kg/injection, schedule: Q01DX009 (ip), vehicle: saline with Tween-80) is 2 of 6.
Consider `CC[N+](C)(C)CC(C)C`, for which the survivor count under setting [7] was 1 of 6.
Regarding `Cc1ccc(N=Nc2ccc(C)cc2NC(=O)Nc2cc(C)ccc2C)cc1`, the survivor count (dose: 200.0 mg/kg/injection, schedule: Q04DX002 (ip), vehicle: saline with Tween-80) is listed as 6 of 6.
`C=CC(OC(C)=O)OC(C)=O`: the survivor count (dose: 14.0 mg/kg/injection, schedule: Q01DX Z (ip), vehicle: carboxymethylcellulose (CMC)) is recorded as 0 of 6; the survivor count (dose: 21.0 mg/kg/injection, schedule: Q01DX Z (ip), vehicle: carboxymethylcellulose (CMC)) was 0 of 6; the survivor count (dose: 50.0 mg/kg/injection, schedule: Q04DX003 (ip), vehicle: saline with Tween-80) is 0 of 6.
For `CC1=C(/C=C/C(C)=C/C=C/C(C)=C/C=O)C(C)(C)CCC1`, the survivor count (dose: 100.0 mg/kg/injection, schedule: Q01DX009 (ip), vehicle: steroid suspending solution) is listed as 5 of 6.
Consider `OC1CCN2CCCc3cccc1c32` (stereo not given), for which the survivor count is 3 of 6 (dose: 100.0 mg/kg/injection, schedule: Q04DX003 (ip), vehicle: other); 0 of 6 (dose: 200.0 mg/kg/injection, schedule: Q04DX003 (ip), vehicle: other); 0 of 6 (dose: 400.0 mg/kg/injection, schedule: Q04DX003 (ip), vehicle: other).
Regarding `O=C1c2ccccc2C(Cl)=C(Cl)C1(Cl)Cl`, the survivor count is given as 6 of 6 under setting [1] and 0 of 6 under setting [2].
Take `COc1ccc2ccccc2n1`: the survivor count is reported as 5 of 6 under setting [3] and 3 of 6 under setting [8].
Turning to `O=C(Nc1cc(C(F)(F)F)ccc1Cl)c1cccc(C(=O)Nc2cc(C(F)(F)F)ccc2Cl)c1`, the survivor count is 6 of 6 (dose: 100.0 mg/kg/injection, schedule: Q04DX003 (ip), vehicle: saline with Tween-80) and 5 of 6 under setting [8].
As to `CC(C)(C)NC(=O)NCCc1ccccc1`, the survivor count by setting is: (dose: 100.0 mg/kg/injection, schedule: Q04DX003 (ip), vehicle: Klucel (hydroxypropylcellulose) (HPC)) 6 of 6; (dose: 200.0 mg/kg/injection, schedule: Q01DX009 (ip), vehicle: Klucel (hydroxypropylcellulose) (HPC)) 6 of 6.
Regarding `O=C(O)c1cccc2c1-c1ccc(Cl)cc1C2`, the survivor count under setting [2] was 0 of 6.
